Measured data: PubChem BioAssay AID1259254 (NCATS, 2017)

Purpose: 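Gene knock-downs that lead to re-replication, shown by excess G2 DNA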 (primary screen)
System: human HCT116 colorectal cancer cells
Reagent: single siRNA against human genes
Duration: 3 days
Measurement: 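Nuclei stained with Hoechst and imaged; cell-cycle phase assigned by DNA content; G2 share scaled per plate, non-targeting siRNA 0%, GMNN siRNA 100%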
Reading the numbers: G2 robust z-score: higher = more G2 cells, more excess DNA replication
Rule for the call: 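Active siRNAs have a G2 robust z of 5 or more median absolute deviations over the median, which in these data means about 38% or higher of GMNN control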
The whole screen tested about 59,000 reagents; shown is a random part of them. About 1,550 of all reagents (2.6%) count as active. 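G2 share is only a proxy for re-replication; each gene was hit by three separate siRNAs, and active genes were retested.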 Reagents against one gene are numbered here. Not all columns of the deposit are shown. The record does not give: the amount of reagent.

With FCRLA #1, what does the deposit list?
G2 robust z-score: -0.575; activity call: inactive

For FCRLA #2, how do the results read?
G2 robust z-score: -0.149; activity call: inactive

What did the screen give for FCRLA #3?
G2 robust z-score: 1.85; activity call: inactive

What did the screen give for NOX5 #1?
G2 robust z-score: 0.405; activity call: inactive

For NOX5 #2, what does the deposit list?
G2 robust z-score: -0.606; activity call: inactive

What did the screen give for NOX5 #3?
G2 robust z-score: -1.22; activity call: inactive

What is on record for SLC12A8 #1?
G2 robust z-score: 0.733; activity call: inactive

How did the screen score SLC12A8 #2?
G2 robust z-score: -1; activity call: inactive

What is on record for SLC12A8 #3?
G2 robust z-score: -1.18; activity call: inactive

What is on record for PASD1 #1?
G2 robust z-score: 1.49; activity call: inactive

What is on record for PASD1 #2?
G2 robust z-score: -0.154; activity call: inactive

Which result is listed for PASD1 #3?
G2 robust z-score: -0.449; activity call: inactive

Which result is listed for LHX6 #1?
G2 robust z-score: -0.974; activity call: inactive

With LHX6 #2, what was measured?
G2 robust z-score: 3.93; activity call: inactive

For LHX6 #3, how do the results read?
G2 robust z-score: -0.0938; activity call: inactive

What did the screen give for TAAR1 #1?
G2 robust z-score: -0.306; activity call: inactive

What did the screen give for TAAR1 #2?
G2 robust z-score: -1.22; activity call: inactive

For TAAR1 #3, what was measured?
G2 robust z-score: -0.563; activity call: inactive

How did the screen score RHCE #1?
G2 robust z-score: -0.304; activity call: inactive

For RHCE #2, what does the deposit list?
G2 robust z-score: 0.626; activity call: inactive

What is on record for RHCE #3?
G2 robust z-score: -0.163; activity call: inactive

Which result is listed for OR2W5 #1?
G2 robust z-score: 3.7; activity call: inactive

With OR2W5 #2, what was measured?
G2 robust z-score: -0.234; activity call: inactive

How did the screen score OR2W5 #3?
G2 robust z-score: -0.943; activity call: inactive

For PAFAH1B2 #1, what was measured?
G2 robust z-score: -0.505; activity call: inactive

With PAFAH1B2 #2, what was measured?
G2 robust z-score: -0.661; activity call: inactive

How did the screen score PAFAH1B2 #3?
G2 robust z-score: 1.13; activity call: inactive

With ADRA1B #1, what was measured?
G2 robust z-score: 4.29; activity call: inactive

With ADRA1B #2, how do the results read?
G2 robust z-score: 0.942; activity call: inactive

Which result is listed for ADRA1B #3?
G2 robust z-score: -0.557; activity call: inactive
